Measurements from paper PMC7240069.
No constants are given. Whether binding was seen depends on the method and setting. Binding can be weak; no strength is given.

Assays:
[1] = target: human FXR ligand binding domain (LBD, residues 243-472) (human); test: AlphaScreen or HTRF; hexahistidine detection kit; about 20-40 nM His6-FXR LBD, 20-100 nM biotinylated cofactor peptide, 5 ug/mL donor and acceptor beads; 50 mM MOPS, 50 mM NaF, 0.05 mM CHAPS, 0.1 mg/mL BSA, pH 7.4; with 1 uM OCA; both purified
[2] = target: human FXR ligand binding domain (LBD, residues 243-472) (human); test: AlphaScreen or HTRF; hexahistidine detection kit; about 20-40 nM His6-FXR LBD, 20-100 nM biotinylated cofactor peptide, 5 ug/mL donor and acceptor beads; 50 mM MOPS, 50 mM NaF, 0.05 mM CHAPS, 0.1 mg/mL BSA, pH 7.4; with vidofludimus (1 uM, Figure 1A; dose series, Figures 1B-D); both purified

B1: SRC3-3 peptide, N-terminally biotinylated (peptide)
peptide: PDAASKHKQLSELLRGGSG
modifications: biotin on the N-terminus
[1]
  binding: binds
[2]
  binding: binds
